In test [1] the test system is ReNCell VM. The test is described as follows: neuronal differentiation score (DCX+ cell fraction vs untreated, manual image score) (score (-3 to 3)); higher = more neuronal differentiation. The note with it: 2 uM, 2 weeks.
The test system of test [2] is ReNCell VM. The test is described as follows: dopaminergic neuron differentiation score (TH+ cell fraction vs untreated, manual image score) (score (0 to 3)); higher = more TH+ dopaminergic neuron differentiation. The note with it: 2 uM, 4 weeks, BDNF 10 ng/ml + GDNF 10 ng/ml.

Where a name gives a salt, the structure may show the parent alone. Some of the results follow. Single values are uncertain here, since repeats match poorly.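 ReNCell VM, a human fetal ventral-midbrain neural progenitor line, was differentiated without mitogens. Blinded raters scored images stained for doublecortin (early neurons) or tyrosine hydroxylase (dopaminergic neurons) against untreated wells (0 = no change). Scores were averaged across repeats and both raters, and compounds averaging 2 or more were selected as hits for retesting.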

The values that follow come from the supplement of paper PMC4635364.

Take `Cc1cc2c3c(cc4cccc(n1)c42)C(=O)C=CC=3` [2-methyl-naphtho[1,2,3-de]quinolin-8-one]: in the test on ReNCell VM [1] (library: Natural), the neuronal differentiation score is inactive: 0. In addition, the “dopaminergic neuron differentiation score” value in the test on ReNCell VM [2] (library: Natural) is inactive: 0.

On to `C[C@]12C=CC(=O)C=C1CC[C@@H]1C2=CC[C@]2(C)[C@@H](C(=O)CN3CCN(c4cc(N5CCCC5)nc(N5CCCC5)n4)CC3)CC[C@@H]12`, for which, in the test on ReNCell VM [1] (library: LOPAC), the neuronal differentiation score is inactive: 0. The “dopaminergic neuron differentiation score” value in the test with ReNCell VM [2] (library: LOPAC) was inactive: 0.

As for `COc1ccc2c(c1)c(CC(=O)O)c(C)n2C(=O)c1ccccc1` [1-benzoyl-5-methoxy-2-methylindole-3-acetic acid], in the test on ReNCell VM [1] (library: LOPAC), the neuronal differentiation score was inactive: 1. Also, the “dopaminergic neuron differentiation score” value with ReNCell VM [2] (library: LOPAC) is inactive: 0.

For `CN(C)CCn1nnnc1SCC1=C(C(=O)O)N2C(=O)[C@@H](NC(=O)Cc3csc(N)n3)[C@H]2SC1` [Cefotiam hydrochloride], the neuronal differentiation score in the test with ReNCell VM [1] (library: Prestwick) was inactive: 0. Besides, the “dopaminergic neuron differentiation score” value in the test with ReNCell VM [2] (library: Prestwick) is inactive: 0.

Turning to `C[C@H](N)[C@H](O)c1cccc(O)c1`, in the test with ReNCell VM [1] (library: Spectrum), the neuronal differentiation score was inactive: 0. The “dopaminergic neuron differentiation score” value with ReNCell VM [2] (library: Spectrum) was inactive: 0.

Consider `CCN(CC)CCCCC1CCN(CC(=O)N2c3ccccc3C(=O)Nc3cccnc32)CC1`, for which the neuronal differentiation score in the test on ReNCell VM [1] (library: Tocriscreen) is inactive: 0. Besides, the “dopaminergic neuron differentiation score” value in the test on ReNCell VM [2] (library: Tocriscreen) is inactive: 0.

As for `CC1(C)S[C@@H]2[C@H](NC(=O)[C@H](C(=O)O)c3ccsc3)C(=O)N2[C@H]1C(=O)O` [Ticarcillin sodium], the neuronal differentiation score with ReNCell VM [1] (library: Prestwick) was inactive: 0. The “dopaminergic neuron differentiation score” value in the test on ReNCell VM [2] (library: Prestwick) was inactive: 0.

Regarding `CC(Oc1ccccc1)C(=O)N[C@@H]1C(=O)N2[C@@H]1SC(C)(C)[C@@H]2C(=O)O` (stereo partly drawn), the neuronal differentiation score with ReNCell VM [1] (library: Spectrum) is inactive: 0. Also, in the test on ReNCell VM [2] (library: Spectrum), the “dopaminergic neuron differentiation score” value is inactive: 0.

Consider `N=C(N)c1ccc(N)cc1` [4-Aminobenzamidine dihydrochloride], for which the neuronal differentiation score with ReNCell VM [1] (library: LOPAC) is inactive: 0. Further, the “dopaminergic neuron differentiation score” value in the test on ReNCell VM [2] (library: LOPAC) was inactive: 0.

In the case of `CCC(NC(C)C)C(O)c1ccc(O)c(O)c1` (stereo not drawn) [Isotharine mesylate], in the test on ReNCell VM [1] (library: LOPAC), the neuronal differentiation score is inactive: 0. In addition, in the test with ReNCell VM [2] (library: LOPAC), the “dopaminergic neuron differentiation score” value is inactive: 0.

Regarding `COC1=CC(=O)C(C(=O)c2ccccc2)=CC1=O`, the neuronal differentiation score with ReNCell VM [1] (library: Spectrum) is inactive: 0. In addition, the “dopaminergic neuron differentiation score” value in the test with ReNCell VM [2] (library: Spectrum) was inactive: 0.

As for `COc1ccc2c(c1)OCC(Cc1ccc(OC)c(O)c1)C2=O` (stereo not drawn), in the test on ReNCell VM [1] (library: Spectrum), the neuronal differentiation score was inactive: 0. In the test with ReNCell VM [2] (library: Spectrum), the “dopaminergic neuron differentiation score” value is inactive: 0.

With `O=C1NS(=O)(=O)c2ccccc21`, the neuronal differentiation score in the test on ReNCell VM [1] (library: Spectrum) was inactive: 0. Moreover, the “dopaminergic neuron differentiation score” value with ReNCell VM [2] (library: Spectrum) was inactive: 0.

For the molecule `O=C(O)c1ccccc1Nc1ccccc1` [N-Phenylanthranilic acid], the neuronal differentiation score in the test with ReNCell VM [1] (library: LOPAC) was inactive: 0. In addition, the “dopaminergic neuron differentiation score” value in the test with ReNCell VM [2] (library: LOPAC) was inactive: 0.

Regarding `CC1(C)C=Cc2c(c3c(c4c(=O)c(-c5ccc(O)cc5)coc24)OC(C)(C)CC3)O1`, the neuronal differentiation score in the test with ReNCell VM [1] (library: Spectrum) is inactive: 0. For the same molecule, the “dopaminergic neuron differentiation score” value with ReNCell VM [2] (library: Spectrum) is inactive: 0.

`CCOc1nc2cccc(C(=O)OCc3oc(=O)oc3C)c2n1Cc1ccc(-c2ccccc2-c2noc(=O)[nH]2)cc1`: the neuronal differentiation score in the test with ReNCell VM [1] (library: Spectrum) was inactive: 0. Moreover, the “dopaminergic neuron differentiation score” value with ReNCell VM [2] (library: Spectrum) is inactive: 0.

Take `Nc1ccc(S(=O)(=O)Nc2cnc3ccccc3n2)cc1` [Sulfaquinoxaline sodium salt]: the neuronal differentiation score in the test on ReNCell VM [1] (library: Prestwick) is inactive: 0. Moreover, the “dopaminergic neuron differentiation score” value in the test with ReNCell VM [2] (library: Prestwick) was inactive: 0.

`C=CC(C1=CC(=O)C(OC)=CC1=O)c1ccc(OC)cc1` (stereo not drawn): in the test on ReNCell VM [1] (library: Spectrum), the neuronal differentiation score is inactive: 0. In the test with ReNCell VM [2] (library: Spectrum), the “dopaminergic neuron differentiation score” value is inactive: 0.

As for `COc1cccc(C(=O)CC2c3c(c(Br)c4c(c3OC)OCO4)CCN2C)c1` (stereo not drawn), the neuronal differentiation score in the test on ReNCell VM [1] (library: Natural) is inactive: 0. In addition, the “dopaminergic neuron differentiation score” value with ReNCell VM [2] (library: Natural) was inactive: 0.

Turning to `CC(=O)Oc1cc(C(C)C)c(OCCN(C)C)cc1C`, the neuronal differentiation score in the test on ReNCell VM [1] (library: Spectrum) is inactive: 0. Besides, the “dopaminergic neuron differentiation score” value in the test with ReNCell VM [2] (library: Spectrum) is inactive: 0.

Take `O=C(Nc1ccccc1)OCC(CN1CCCCC1)OC(=O)Nc1ccccc1` (stereo not drawn): the neuronal differentiation score with ReNCell VM [1] (library: Spectrum) was inactive: 0. For the same molecule, the “dopaminergic neuron differentiation score” value with ReNCell VM [2] (library: Spectrum) is inactive: 0.

For `O=c1n(CCCN2CCN(c3cccc(Cl)c3)CC2)nc2ccccn12`, the neuronal differentiation score with ReNCell VM [1] (library: Spectrum) is inactive: 1. Also, the “dopaminergic neuron differentiation score” value with ReNCell VM [2] (library: Spectrum) was inactive: 0.

Turning to `CC(=O)OCC(=O)[C@@]1(O)CC[C@H]2[C@@H]3CCC4=CC(=O)CC[C@]4(C)[C@H]3[C@@H](O)C[C@@]21C`, in the test on ReNCell VM [1] (library: Spectrum), the neuronal differentiation score is inactive: 1. The “dopaminergic neuron differentiation score” value with ReNCell VM [2] (library: Spectrum) was inactive: 0.

For `CCN(CC)CC1CCN(c2ncc3ncnc(Nc4ccc(F)c(Cl)c4)c3n2)CC1` [BIBU 1361 dihydrochloride], the neuronal differentiation score with ReNCell VM [1] (library: Tocriscreen) is inactive: 0. In addition, the “dopaminergic neuron differentiation score” value in the test with ReNCell VM [2] (library: Tocriscreen) is inactive: 0.

`C[C@@H]1C(=O)O[C@H]2C[C@@]34[C@H]5C[C@@H](C(C)(C)C)[C@]36[C@@H](OC(=O)[C@@H]6O)O[C@@]4(C(=O)O5)[C@]21O`: the neuronal differentiation score with ReNCell VM [1] (library: Spectrum) is inactive: 0. The “dopaminergic neuron differentiation score” value in the test with ReNCell VM [2] (library: Spectrum) is inactive: 0.

For `O=C1CN(/N=C/c2ccc(-c3ccc([N+](=O)[O-])cc3)o2)C(=O)N1` [Dantrolene, sodium salt], the neuronal differentiation score with ReNCell VM [1] (library: Tocriscreen) was inactive: 0. In the test on ReNCell VM [2] (library: Tocriscreen), the “dopaminergic neuron differentiation score” value was inactive: 0.

For the molecule `O=C(O)C(=O)O.[NH-][C@@H]1CCCC[C@H]1[NH-].[Pt+2]`, the neuronal differentiation score in the test on ReNCell VM [1] (library: Spectrum) is inactive: 0. The “dopaminergic neuron differentiation score” value with ReNCell VM [2] (library: Spectrum) is inactive: 0.

As for `OC(CCN1CCCC1)(c1ccccc1)C1CCCCC1` (stereo not drawn) [Procyclidine hydrochloride], the neuronal differentiation score in the test with ReNCell VM [1] (library: Prestwick) is inactive: 0. Also, the “dopaminergic neuron differentiation score” value in the test with ReNCell VM [2] (library: Prestwick) was inactive: 0.

Take `C[C@H](CCC(=O)NCC(=O)O)[C@H]1CC[C@H]2[C@@H]3[C@H](O)C[C@@H]4C[C@H](O)CC[C@]4(C)[C@H]3C[C@H](O)[C@]12C` [Glycocholic acid]: in the test with ReNCell VM [1] (library: Phytochemical), the neuronal differentiation score was inactive: 0. Also, the “dopaminergic neuron differentiation score” value in the test on ReNCell VM [2] (library: Phytochemical) is inactive: 0.

For the molecule `O=C(O)c1ccccc1-c1c2cc(I)c(=O)c(I)c-2oc2c(I)c(O)c(I)cc12`, the neuronal differentiation score in the test on ReNCell VM [1] (library: Spectrum) is inactive: 0. Moreover, in the test on ReNCell VM [2] (library: Spectrum), the “dopaminergic neuron differentiation score” value was inactive: 0.

Consider `COc1cccc2c1[C@@H]1CN(CCCCn3c(=O)[nH]c4c(sc5ncc(-c6ccccc6)nc54)c3=O)C[C@@H]1CO2` [Fiduxosin hydrochloride], for which, in the test on ReNCell VM [1] (library: LOPAC), the neuronal differentiation score was inactive: 0. The “dopaminergic neuron differentiation score” value in the test with ReNCell VM [2] (library: LOPAC) is inactive: 0.

Turning to `C#CCN(C)CCCOc1ccc(Cl)cc1Cl`, in the test with ReNCell VM [1] (library: Spectrum), the neuronal differentiation score was inactive: 0. For the same molecule, the “dopaminergic neuron differentiation score” value in the test with ReNCell VM [2] (library: Spectrum) was inactive: 0.

With `NC(=O)CC[C@H](N)C(=O)O` [L-Glutamine], the neuronal differentiation score in the test on ReNCell VM [1] (library: LOPAC) was inactive: 0. In the test with ReNCell VM [2] (library: LOPAC), the “dopaminergic neuron differentiation score” value is inactive: 0.

Turning to `CN1CCCC(n2nc(Cc3ccc(Cl)cc3)c3ccccc3c2=O)CC1` (stereo not drawn), the neuronal differentiation score in the test on ReNCell VM [1] (library: Spectrum) is inactive: 0. The “dopaminergic neuron differentiation score” value in the test on ReNCell VM [2] (library: Spectrum) was inactive: 0.
